5 molecules from paper PMC12172420 can be followed below.

In experiment [1] the target is T1, Flag-MIDN (midnolin) (UniProt Q504T8).
T1 sequence: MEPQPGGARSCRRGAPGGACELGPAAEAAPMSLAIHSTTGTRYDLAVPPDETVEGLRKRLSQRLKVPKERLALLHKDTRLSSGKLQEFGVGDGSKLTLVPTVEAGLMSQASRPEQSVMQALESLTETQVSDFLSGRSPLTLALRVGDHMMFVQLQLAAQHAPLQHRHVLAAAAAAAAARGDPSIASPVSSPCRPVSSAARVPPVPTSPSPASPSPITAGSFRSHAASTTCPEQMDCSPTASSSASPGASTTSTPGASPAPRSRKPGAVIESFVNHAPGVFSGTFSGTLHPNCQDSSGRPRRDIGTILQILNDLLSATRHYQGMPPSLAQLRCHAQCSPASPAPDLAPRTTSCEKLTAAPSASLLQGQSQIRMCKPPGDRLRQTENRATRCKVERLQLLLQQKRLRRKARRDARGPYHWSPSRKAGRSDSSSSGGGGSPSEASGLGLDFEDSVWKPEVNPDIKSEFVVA
Description: co-IP; HEK-293T cells co-transfected for 24 h, lysed in NP40 Cell Lysis Buffer; anti-Flag-antibody-bound Dynabeads Protein G, 30 min at room temperature; washed four times with 0.02% PBST; immunoblot. In general terms: Immunoblotting shows a protein as a band on a membrane.

The target of experiment [2] is Flag-Catch (Catch domain of midnolin). Described as above.
Experiment [3] deals with GST-Catch (Catch domain of midnolin in pCold GST). As to the kind of experiment: pull-down; GST pulldown: recombinant bait and prey proteins from E. coli BL21 (DE3), purified, incubated with glutathione agarose resin (GST Protein Interaction Pull-Down Kit); eluted with glutathione; immunoblot; both purified.
Experiment [4] deals with GST-E (GST-fused PEDV E) (porcine epidemic diarrhea virus (PEDV)). The description is as above.

These are yes or no findings as the source states them, for the method shown. Binding can be weak; no strength is given. For some assays here: In cells and extracts the contact can be indirect. For some assays here: Sequences can lack the tags named with a protein.

As for “HA-E (PEDV envelope protein) (porcine epidemic diarrhea virus (PEDV))”, the binding entry in experiment [1] was “binds”.

B1: MYC-MARCH8 (E3 ubiquitin ligase MARCH8) (enzyme, UniProt Q5T0T0 1-291)
chain: MSMPLHQISAIPSQDAISARVYRSKTKEKEREEQNEKTLGHFMSHSSNISKAGSPPSASAPAPVSSFSRTSITPSSQDICRICHCEGDDESPLITPCHCTGSLHFVHQACLQQWIKSSDTRCCELCKYEFIMETKLKPLRKWEKLQMTSSERRKIMCSVTFHVIAITCVVWSLYVLIDRTAEEIKQGQATGILEWPFWTKLVVVAIGFTGGLLFMYVQCKVYVQLWKRLKAYNRVIYVQNCPETSKKNIFEKSPLTEPNFENKHGYGICHSDTNSSCCTEPEDTGAEIIHV
Consider B1, for which the binding result in experiment [2] is reported as “binds”.

B2: MARCH8 (full length, recombinant from pCold TF) (enzyme, UniProt Q5T0T0 1-291)
chain: MSMPLHQISAIPSQDAISARVYRSKTKEKEREEQNEKTLGHFMSHSSNISKAGSPPSASAPAPVSSFSRTSITPSSQDICRICHCEGDDESPLITPCHCTGSLHFVHQACLQQWIKSSDTRCCELCKYEFIMETKLKPLRKWEKLQMTSSERRKIMCSVTFHVIAITCVVWSLYVLIDRTAEEIKQGQATGILEWPFWTKLVVVAIGFTGGLLFMYVQCKVYVQLWKRLKAYNRVIYVQNCPETSKKNIFEKSPLTEPNFENKHGYGICHSDTNSSCCTEPEDTGAEIIHV
Take B2: the binding result in experiment [3] is “binds”.

B3: CALCOCO2/NDP52 (calcium binding and coiled-coil domain 2) (protein, UniProt Q13137 1-446)
chain: MEETIKDPPTSAVLLDHCHFSQVIFNSVEKFYIPGGDVTCHYTFTQHFIPRRKDWIGIFRVGWKTTREYYTFMWVTLPIDLNNKSAKQQEVQFKAYYLPKDDEYYQFCYVDEDGVVRGASIPFQFRPENEEDILVVTTQGEVEEIEQHNKELCKENQELKDSCISLQKQNSDMQAELQKKQEELETLQSINKKLELKVKEQKDYWETELLQLKEQNQKMSSENEKMGIRVDQLQAQLSTQEKEMEKLVQGDQDKTEQLEQLKKENDHLFLSLTEQRKDQKKLEQTVEQMKQNETTAMKKQQELMDENFDLSKRLSENEIICNALQRQKERLEGENDLLKRENSRLLSYMGLDFNSLPYQVPTSDEGGARQNPGLAYGNPYSGIQESSSPSPLSIKKCPICKADDICDHTLEQQQMQPLCFNCPICDKIFPATEKQIFEDHVFCHSL
As to B3, the binding result in experiment [2] is listed as “no binding”.

B4: MIDN (full-length midnolin, recombinant from E. coli) (protein, UniProt Q504T8 1-468)
chain: MEPQPGGARSCRRGAPGGACELGPAAEAAPMSLAIHSTTGTRYDLAVPPDETVEGLRKRLSQRLKVPKERLALLHKDTRLSSGKLQEFGVGDGSKLTLVPTVEAGLMSQASRPEQSVMQALESLTETQVSDFLSGRSPLTLALRVGDHMMFVQLQLAAQHAPLQHRHVLAAAAAAAAARGDPSIASPVSSPCRPVSSAARVPPVPTSPSPASPSPITAGSFRSHAASTTCPEQMDCSPTASSSASPGASTTSTPGASPAPRSRKPGAVIESFVNHAPGVFSGTFSGTLHPNCQDSSGRPRRDIGTILQILNDLLSATRHYQGMPPSLAQLRCHAQCSPASPAPDLAPRTTSCEKLTAAPSASLLQGQSQIRMCKPPGDRLRQTENRATRCKVERLQLLLQQKRLRRKARRDARGPYHWSPSRKAGRSDSSSSGGGGSPSEASGLGLDFEDSVWKPEVNPDIKSEFVVA
On to B4, for which, in experiment [4], the binding result is recorded as “binds”.
